No constants are given. Whether binding was seen depends on the method and setting. Some results given as binding are weak or reduced against the parent protein; the word gives no strength.
Legend:
[1] = target: Flag-tagged human 4-1BB N138Q/N149Q (human) (UniProt Q07011); assay: non-reducing SDS-PAGE with immunoblotting; cell lysates (RIPA buffer) run with and without 50 mM DTT; DTT-sensitive (disulfide-linked) dimers, trimers and oligomers; bands that exist with DTT taken as monomers
[2] = target: His-tagged 4-1BB protein, native (N-glycosylated, PNGase F-untreated) (human) (UniProt Q07011); assay: ELISA; His-tagged 4-1BB (native or deglycosylated) held on a Ni-NTA-coated 96-well plate, room temperature, 30 min; Fc-tagged 4-1BBL in PBST added for 30 min; detected with HRP anti-human Fc and TMB, OD450; both purified
[3] = target: His-tagged 4-1BB protein, deglycosylated with PNGase F (human) (UniProt Q07011); assay: as above

Chains of the proteins cited; added tags and fusions are not shown. Lines headed by an entry give the natural chain unless they say otherwise; changes in a name come on top. A line that says so, or that is headed by a name, gives the form on record, which may keep a tag or linker. Residues count along the entry.
His-tagged 4-1BB protein, deglycosylated with PNGase F (Q07011, residues 24-186): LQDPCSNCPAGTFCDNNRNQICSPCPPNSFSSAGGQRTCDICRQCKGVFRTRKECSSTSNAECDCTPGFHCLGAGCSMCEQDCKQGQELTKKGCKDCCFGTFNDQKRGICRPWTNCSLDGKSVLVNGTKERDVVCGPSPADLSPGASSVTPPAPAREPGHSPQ
Flag-tagged human 4-1BB N138Q/N149Q (Q07011, form named): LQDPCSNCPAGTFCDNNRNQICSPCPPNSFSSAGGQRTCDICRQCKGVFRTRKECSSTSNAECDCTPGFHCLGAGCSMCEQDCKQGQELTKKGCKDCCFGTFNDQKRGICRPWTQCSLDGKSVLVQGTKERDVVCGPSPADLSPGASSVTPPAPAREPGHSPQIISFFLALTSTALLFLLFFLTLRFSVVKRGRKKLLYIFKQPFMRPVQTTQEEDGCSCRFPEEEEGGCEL
UniProt P41273, residues 50-254: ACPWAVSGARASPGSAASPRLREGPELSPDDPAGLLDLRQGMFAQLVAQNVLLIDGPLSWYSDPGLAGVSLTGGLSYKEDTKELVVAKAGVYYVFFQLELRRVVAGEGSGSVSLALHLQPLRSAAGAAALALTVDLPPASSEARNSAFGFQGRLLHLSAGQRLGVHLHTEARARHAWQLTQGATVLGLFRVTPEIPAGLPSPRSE

binding [1] | binding [2] | binding [3] | Substance
binds |  |  | Flag-tagged human 4-1BB N138Q/N149Q (from UniProt Q07011 24-255) (receptor)
 | binds | binds | human Fc-tagged 4-1BBL (from UniProt P41273 50-254) (Fc fusion)
